# From patent WO2008121160A2 (dated 2008)
# Experiments:
# human CD5 (human) = test: flow cytometry, labeled antibody on human PBMCs (leukocytes of lysed blood)
# [1] = target: cynomolgus monkey CD5 (cynomolgus monkey); test: flow cytometry, labeled antibody on cynomolgus monkey PBMCs (leukocytes of lysed blood)
binder,measurement,setting,value
"murine anti-CD5 antibody 5D7 (antibody, V domains shown) VH: QVTLKESGPGILKPSQTLSLTCSFSGFSLSTSGMGVGWIRQPSGKGLEWLAHIWWDDDVYYNPSLKNQLTISKDASRDQVFLKITNLDTADTATYYCVRRRATGTGFDYWGQGTTLTVSS VL: NIVMTQSHKFMSTSVGDRVSIACKASQDVGTAVAWYQQKPGQSPKLLIYWTSTRHTGVPDRFTGSGSGTDFTLTITNVQSEDLADYFCHQYNSYNTFGSGTRLELK",binding,human CD5 (human),binds
same,binding,[1],binds

# Results are given in words; binding and its absence hold for the method and conditions named. Binding calls can cover weak binding; strength is not graded here.
